US8722662B2, “Heterocyclic compounds” (Takeda Pharmaceutical Company Limited, priority 2010, dated 2014)
Counter-ions that a name gives are not always drawn. Some of these results come from one statement about several compounds together. At least one compound was matched to its structure with a doubt left.

These molecules were tested on SD female rats (assay: Measurement of urethral resistance increasing effect (leak point pressure), oral administration). Settings: rat, compared to vehicle (0.5% methylcellulose).
Assay type: in vivo

`O=c1[nH]c(-c2cccn(C[C@@H]3CNCCO[C@H]3c3ccc(Cl)c(Cl)c3)c2=O)no1` [Example 31, 1-{[(6S,7R)-7-(3,4-dichlorophenyl)-1,4-oxazepan-6-yl]methyl}-3-(5-oxo-4,5-dihydro-1,2,4-oxadiazol-3-yl)pyridin-2(1H)-one monohydrochloride] was tested. Which “urethral resistance increasing effect (LPP Post value minus Pre value)” value did it give?
Its value is “significant urethral resistance increasing effect”.

Which “urethral resistance increasing effect (LPP Post value minus Pre value)” value does the source give for `CC(=O)NC[C@@H]1CNCCO[C@H]1c1ccc(Cl)c(Cl)c1` [Example 32, N-{[(6S,7R)-7-(3,4-dichlorophenyl)-1,4-oxazepan-6-yl]methyl}acetamide 0.5 fumarate] here?
The value was “significant urethral resistance increasing effect”.

With `COCC(=O)NC[C@@H]1CNCCO[C@H]1c1ccc(Cl)c(Cl)c1` [Example 33, N-{[(6S,7R)-7-(3,4-dichlorophenyl)-1,4-oxazepan-6-yl]methyl}-2-methoxyacetamide monohydrochloride] as the molecule, how does the “urethral resistance increasing effect (LPP Post value minus Pre value)” value read?
Its value is “significant urethral resistance increasing effect”.

How did the “urethral resistance increasing effect (LPP Post value minus Pre value)” value turn out when `CC(=O)N[C@@H]1CNCCO[C@H]1c1ccc(Cl)c(Cl)c1` [Example 36, N-[(6R,7S)-7-(3,4-dichlorophenyl)-1,4-oxazepan-6-yl]acetamide monofumarate] was run?
The value was “significant urethral resistance increasing effect”.

How did the “urethral resistance increasing effect (LPP Post value minus Pre value)” value turn out when `NS(=O)(=O)N[C@@H]1CNCCO[C@H]1c1ccc(Cl)c(Cl)c1` [Example 37, N-[(6R,7S)-7-(3,4-dichlorophenyl)-1,4-oxazepan-6-yl]sulfamide monohydrochloride] was run?
The value was “significant urethral resistance increasing effect”.

`COCC(=O)NC[C@@H]1CNCCO[C@H]1c1ccc(Cl)c(F)c1` [Example 38, N-{[(6S,7R)-7-(4-chloro-3-fluorophenyl)-1,4-oxazepan-6-yl]methyl}-2-methoxyacetamide monohydrochloride] was tested. Which “urethral resistance increasing effect (LPP Post value minus Pre value)” value did it give?
The value was “significant urethral resistance increasing effect”.

For `[2H]C([2H])([2H])OCC(=O)NC[C@@H]1CNCCO[C@H]1c1ccc(Cl)c(F)c1` [Example 39, N-{[(6S,7R)-7-(4-chloro-3-fluorophenyl)-1,4-oxazepan-6-yl]methyl}-2-[(^2H3)methyloxy]acetamide monohydrochloride], which “urethral resistance increasing effect (LPP Post value minus Pre value)” value is on record?
The value was “significant urethral resistance increasing effect”.

For `CCOCC(=O)NC[C@@H]1CNCCO[C@H]1c1ccc(Cl)c(F)c1` [Example 40, N-{[(6S,7R)-7-(4-chloro-3-fluorophenyl)-1,4-oxazepan-6-yl]methyl}-2-ethoxyacetamide monohydrochloride], which “urethral resistance increasing effect (LPP Post value minus Pre value)” value is on record?
The value was “significant urethral resistance increasing effect”.

How did the “urethral resistance increasing effect (LPP Post value minus Pre value)” value turn out when `CC(C)OCC(=O)NC[C@@H]1CNCCO[C@H]1c1ccc(Cl)c(F)c1` [Example 41, N-{[(6S,7R)-7-(4-chloro-3-fluorophenyl)-1,4-oxazepan-6-yl]methyl}-2-(1-methylethoxy)acetamide monohydrochloride] was run?
The value was “significant urethral resistance increasing effect”.

`O=c1[nH]c(-c2cccn(C[C@@H]3CNCCO[C@H]3c3ccc(Cl)c(F)c3)c2=O)no1` [Example 43, 1-{[(6S,7R)-7-(4-chloro-3-fluorophenyl)-1,4-oxazepan-6-yl]methyl}-3-(5-oxo-4,5-dihydro-1,2,4-oxadiazol-3-yl)pyridin-2(1H)-one monohydrochloride] was tested. Which “urethral resistance increasing effect (LPP Post value minus Pre value)” value did it give?
The value was “significant urethral resistance increasing effect”.

Which “urethral resistance increasing effect (LPP Post value minus Pre value)” value does the source give for `O=C(O)c1cccn(C[C@@H]2CNCCO[C@H]2c2ccc(Cl)c(F)c2)c1=O` [Example 44, 1-{[(6S,7R)-7-(4-chloro-3-fluorophenyl)-1,4-oxazepan-6-yl]methyl}-2-oxo-1,2-dihydropyridine-3-carboxylic acid monohydrochloride] here?
Its value is “significant urethral resistance increasing effect”.

With `OC[C@H](O)[C@@H]1OCCNC[C@H]1c1ccc(Cl)c(Cl)c1` [Example 45, (1S)-1-[(6R,7R)-6-(3,4-dichlorophenyl)-1,4-oxazepan-7-yl]ethane-1,2-diol monohydrochloride] as the molecule, how does the “urethral resistance increasing effect (LPP Post value minus Pre value)” value read?
The value was “significant urethral resistance increasing effect”.

How did the “urethral resistance increasing effect (LPP Post value minus Pre value)” value turn out when `O=c1[nH]c(-c2cccnc2O[C@@H]2CNCCO[C@H]2c2ccc(Cl)c(F)c2)no1` [Example 556, 3-(2-{[(6R,7S)-7-(4-chloro-3-fluorophenyl)-1,4-oxazepan-6-yl]oxy}pyridin-3-yl)-1,2,4-oxadiazol-5(4H)-one] was run?
The value was “significant urethral resistance increasing effect”.

How did the “urethral resistance increasing effect (LPP Post value minus Pre value)” value turn out when `O=c1[nH]c(-c2ccccc2O[C@@H]2CNCCO[C@H]2c2ccc(Cl)c(F)c2)no1` [Example 577, 3-(2-{[(6R,7S)-7-(4-chloro-3-fluorophenyl)-1,4-oxazepan-6-yl]oxy}phenyl)-1,2,4-oxadiazol-5(4H)-one] was run?
The value was “significant urethral resistance increasing effect”.

`O=c1[nH]c(-c2ncccc2O[C@@H]2CNCCO[C@H]2c2ccc(Cl)c(F)c2)no1` [Example 584, 3-(3-{[(6R,7S)-7-(4-chloro-3-fluorophenyl)-1,4-oxazepan-6-yl]oxy}pyridin-2-yl)-1,2,4-oxadiazol-5(4H)-one] was tested. Which “urethral resistance increasing effect (LPP Post value minus Pre value)” value did it give?
Its value is “significant urethral resistance increasing effect”.
